Reference: patent US20060052421A1, “Conjugation agent” (Eastman Kodak Company, priority 2004, published 2006)

Test: Chemoselectivity for thiol-containing groups relative to amines: reaction with lysine, ratio of rate constants
Details: for Selectivity, krel(thiol)/krel(amine): Table 2, water soluble conjugation agents, determined as for Table 1

Row | SMILES | Selectivity, krel(thiol)/krel(amine) | Selectivity for thiol-containing groups relative to C6 (Table 2 data)
1 | CCn1nnnc1Sc1cc[n+](Cc2ccccc2)cc1 [I6] | 10^7 | 
2 | CCn1nnnc1Sc1c([N+](=O)[O-])cc(C(=O)NCCC(=O)O)cc1[N+](=O)[O-] [I5] | 178,000 | 
3 | CCn1nnnc1Sc1c(C(=O)NCCC(=O)O)cc([N+](=O)[O-])cc1[N+](=O)[O-] [I4] | 369,000 | about 88 times
4 | C=CS(=O)(=O)CS(=O)(=O)C=C [C9, bis(vinylsulfonyl)methane, reference compound] | 538 | 
